Values from PubChem BioAssay AID652243 (Drosophila RNAi Screening Center, 2013).
Test: 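Knock-downs that decrease or increase androgen receptor reporter signal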 (primary screen). Cell system: Drosophila S2R+ cells. Reagents: long dsRNA against Drosophila genes. Timing: 72 h (48 h, then 24 h hormone). Treatment: synthetic androgen R1881 at 10 nM for 24 h. Detection: 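Firefly light from an androgen-responsive reporter and Renilla control light per well, raw and unnormalised, for each of two replicates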. Direction: firefly reporter light: higher = more light from androgen-responsive reporter; Renilla control light: higher = more constitutive control signal (cell number, transfection). Hit rule: 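Across duplicate plates, a knock-down whose log firefly/Renilla ratio shifted a set fold down or up from the GFP/LacZ control mean was a hit; the downward cut appears as both 1.5 and 3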. Meaning of the calls: active = hit: reporter lowered or raised; inactive = no hit.
The deposit covers about 24,000 reagents; below is a random part of those that have a named target and a result. Over the whole deposit, 246 (1%) are marked active. 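Plates not normalised; calls are printed but the firefly/Renilla ratio behind them is not deposited; fold cut for lowering reported inconsistently.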 Raw values vary from plate to plate and are shown uncorrected. Reagents against one gene are numbered here. Names joined by + are all predicted targets of the reagent. No sequences are given here. Not given: the amount of reagent.

gene knocked down | reagent no. | firefly reporter light, replicate 1 | firefly reporter light, replicate 2 | Renilla control light, replicate 1 | Renilla control light, replicate 2 | call
CG15676 | 1 | 2.11e5 | 2.19e5 | 1.49e6 | 1.43e6 | inactive
CG15676 | 2 | 6.64e5 | 5.06e5 | 4.04e5 | 2.94e5 | inactive
serp | 1 | 2.95e5 | 2.64e5 | 2.71e6 | 3.00e6 | inactive
serp | 2 | 1.91e5 | 1.79e5 | 1.84e6 | 1.58e6 | inactive
l(2)03659 | 1 | 5.03e5 | 3.25e5 | 2.90e6 | 2.34e6 | inactive
l(2)03659 | 2 | 3.15e5 | 2.23e5 | 1.95e6 | 1.71e6 | inactive
CG10513 | 1 | 66258 | 94665 | 7.89e5 | 1.00e6 | inactive
CG32563 | 1 | 4.26e5 | 2.58e5 | 3.43e6 | 1.81e6 | inactive
CG32563 | 2 | 4.34e5 | 4.68e5 | 8.72e5 | 1.59e6 | inactive
Mal-A1 | 1 | 3.49e5 | 3.31e5 | 1.91e6 | 1.74e6 | inactive
Mal-A1 | 2 | 5.32e5 | 3.71e5 | 1.47e6 | 1.51e6 | inactive
mEFG1 | 1 | 2.04e5 | 1.41e5 | 1.23e6 | 9.98e5 | inactive
CG5327 + CG5493 | 1 | 6.35e5 | 6.50e5 | 7.16e5 | 8.78e5 | inactive
trus | 1 | 81222 | 76155 | 1.12e6 | 1.55e6 | inactive
trus | 2 | 7.13e5 | 7.72e5 | 6.88e5 | 8.87e5 | inactive
ChLD3 | 1 | 2.67e5 | 2.03e5 | 2.12e6 | 1.65e6 | inactive
CG30416 | 1 | 2.22e5 | 2.88e5 | 1.55e6 | 1.93e6 | inactive
CG32985 | 1 | 1.22e5 | 2.29e5 | 7.39e5 | 6.85e5 | inactive
CG32985 | 2 | 6.83e5 | 6.63e5 | 8.54e5 | 9.99e5 | inactive
CG12229 | 1 | 2.32e5 | 2.42e5 | 2.41e6 | 2.22e6 | inactive
CG12229 | 2 | – | – | – | – | inactive
CG12229 | 3 | – | – | – | – | inactive
CG12795 | 1 | 1.57e5 | 1.24e5 | 1.16e6 | 1.39e6 | inactive
mv | 1 | 39436 | 49415 | 6.89e5 | 8.78e5 | inactive
mv | 2 | 56678 | 59422 | 9.18e5 | 8.59e5 | inactive
mv | 3 | 3.71e5 | 3.53e5 | 7.88e5 | 7.93e5 | inactive
CG15071 | 1 | 80229 | 1.16e5 | 1.42e6 | 1.53e6 | inactive
CG15071 | 2 | 5.39e5 | 7.22e5 | 9.89e5 | 1.60e6 | inactive
CG17271 | 1 | 3.90e5 | 3.45e5 | 3.16e6 | 3.20e6 | inactive
CG17271 | 2 | 8.21e5 | 1.11e6 | 1.93e6 | 1.99e6 | inactive
CG17271 | 3 | 4.67e5 | 3.04e5 | 9.86e5 | 6.38e5 | inactive
tsg | 1 | 4.66e5 | 3.41e5 | 3.64e6 | 2.55e6 | inactive
tsg | 2 | 4.32e5 | 4.23e5 | 7.30e5 | 6.15e5 | inactive
CG4866 | 1 | 84003 | 2.33e5 | 9.83e5 | 9.83e5 | inactive
CG1468 | 1 | 1.53e5 | 1.28e5 | 9.90e5 | 8.62e5 | inactive
CG1468 | 2 | 1.20e6 | 1.29e6 | 1.11e6 | 1.27e6 | inactive
CG40936 (retired record) | 1 | 6.18e5 | 6.66e5 | 1.15e6 | 1.90e6 | inactive
Prosalpha3 | 1 | 1.32e5 | 1.66e5 | 1.05e6 | 1.20e6 | inactive
peb | 1 | 7.00e5 | 7.55e5 | 1.54e6 | 1.54e6 | inactive
peb | 2 | 3.67e5 | 3.98e5 | 6.92e5 | 7.50e5 | inactive

Sorted by “firefly reporter light, replicate 1” (low to high): 5 of the entries above
gene knocked down | reagent no. | firefly reporter light, replicate 1 | firefly reporter light, replicate 2 | Renilla control light, replicate 1 | Renilla control light, replicate 2 | call
mv | 1 | 39436 | 49415 | 6.89e5 | 8.78e5 | inactive
mv | 2 | 56678 | 59422 | 9.18e5 | 8.59e5 | inactive
CG15071 | 1 | 80229 | 1.16e5 | 1.42e6 | 1.53e6 | inactive
CG12795 | 1 | 1.57e5 | 1.24e5 | 1.16e6 | 1.39e6 | inactive
mv | 3 | 3.71e5 | 3.53e5 | 7.88e5 | 7.93e5 | inactive
